Assay results as given in PubChem BioAssay (NCATS).
Several values for one entry are separate records, joined by “and”; a condition that tells them apart may be missing. Equal entries are not always repeated. The shares of active, inactive and inconclusive entries below differ from those in the screen. For some assays here: Where the call is inconclusive, the potency comes from a doubtful curve fit. Activity calls are given as the source filed them. Unless noted, calls follow the shape of the dose curve; as a rule, active = well fitted curve in the direction sought with a large enough effect; inconclusive = small, poorly fitted or top-dose-only effect, or another doubt; inactive = no such curve, though single readings can be large; an effect the other way counts as inactive or inconclusive.

Protein sequences, listed by entry. Tags and fused reporters are not part of them. Lines headed by an entry give the natural chain unless they say otherwise; changes in a name come on top.
UniProt Q07343: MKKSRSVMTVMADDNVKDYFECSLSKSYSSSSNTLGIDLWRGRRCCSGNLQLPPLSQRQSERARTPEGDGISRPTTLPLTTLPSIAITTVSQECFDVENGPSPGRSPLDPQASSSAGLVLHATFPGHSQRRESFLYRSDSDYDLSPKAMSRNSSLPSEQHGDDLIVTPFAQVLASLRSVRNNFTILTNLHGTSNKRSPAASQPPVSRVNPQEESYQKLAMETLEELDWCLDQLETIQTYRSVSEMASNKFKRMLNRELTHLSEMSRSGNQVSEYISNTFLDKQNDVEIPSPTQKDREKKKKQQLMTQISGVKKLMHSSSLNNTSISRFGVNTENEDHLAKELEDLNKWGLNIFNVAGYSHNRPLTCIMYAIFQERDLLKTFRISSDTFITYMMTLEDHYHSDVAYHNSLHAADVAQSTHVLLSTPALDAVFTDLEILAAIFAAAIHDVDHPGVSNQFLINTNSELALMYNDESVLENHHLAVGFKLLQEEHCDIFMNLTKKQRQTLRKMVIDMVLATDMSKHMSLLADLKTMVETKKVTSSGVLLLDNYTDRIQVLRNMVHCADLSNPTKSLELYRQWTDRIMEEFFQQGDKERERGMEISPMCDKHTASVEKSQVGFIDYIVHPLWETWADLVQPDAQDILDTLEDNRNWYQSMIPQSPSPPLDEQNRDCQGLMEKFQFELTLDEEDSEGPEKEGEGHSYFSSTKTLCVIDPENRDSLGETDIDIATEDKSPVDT
UniProt P08482: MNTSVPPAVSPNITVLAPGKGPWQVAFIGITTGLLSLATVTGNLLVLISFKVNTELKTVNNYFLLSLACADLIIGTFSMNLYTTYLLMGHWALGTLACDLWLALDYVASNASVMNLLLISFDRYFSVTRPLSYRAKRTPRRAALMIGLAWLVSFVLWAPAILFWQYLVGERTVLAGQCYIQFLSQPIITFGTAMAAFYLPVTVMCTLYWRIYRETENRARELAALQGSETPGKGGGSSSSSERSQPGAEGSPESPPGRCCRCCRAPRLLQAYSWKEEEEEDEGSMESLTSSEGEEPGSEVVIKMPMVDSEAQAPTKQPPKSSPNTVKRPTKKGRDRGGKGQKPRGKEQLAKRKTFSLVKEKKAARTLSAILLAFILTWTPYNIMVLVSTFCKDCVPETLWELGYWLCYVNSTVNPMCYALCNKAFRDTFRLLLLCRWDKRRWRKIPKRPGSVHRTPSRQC
UniProt Q96QE3: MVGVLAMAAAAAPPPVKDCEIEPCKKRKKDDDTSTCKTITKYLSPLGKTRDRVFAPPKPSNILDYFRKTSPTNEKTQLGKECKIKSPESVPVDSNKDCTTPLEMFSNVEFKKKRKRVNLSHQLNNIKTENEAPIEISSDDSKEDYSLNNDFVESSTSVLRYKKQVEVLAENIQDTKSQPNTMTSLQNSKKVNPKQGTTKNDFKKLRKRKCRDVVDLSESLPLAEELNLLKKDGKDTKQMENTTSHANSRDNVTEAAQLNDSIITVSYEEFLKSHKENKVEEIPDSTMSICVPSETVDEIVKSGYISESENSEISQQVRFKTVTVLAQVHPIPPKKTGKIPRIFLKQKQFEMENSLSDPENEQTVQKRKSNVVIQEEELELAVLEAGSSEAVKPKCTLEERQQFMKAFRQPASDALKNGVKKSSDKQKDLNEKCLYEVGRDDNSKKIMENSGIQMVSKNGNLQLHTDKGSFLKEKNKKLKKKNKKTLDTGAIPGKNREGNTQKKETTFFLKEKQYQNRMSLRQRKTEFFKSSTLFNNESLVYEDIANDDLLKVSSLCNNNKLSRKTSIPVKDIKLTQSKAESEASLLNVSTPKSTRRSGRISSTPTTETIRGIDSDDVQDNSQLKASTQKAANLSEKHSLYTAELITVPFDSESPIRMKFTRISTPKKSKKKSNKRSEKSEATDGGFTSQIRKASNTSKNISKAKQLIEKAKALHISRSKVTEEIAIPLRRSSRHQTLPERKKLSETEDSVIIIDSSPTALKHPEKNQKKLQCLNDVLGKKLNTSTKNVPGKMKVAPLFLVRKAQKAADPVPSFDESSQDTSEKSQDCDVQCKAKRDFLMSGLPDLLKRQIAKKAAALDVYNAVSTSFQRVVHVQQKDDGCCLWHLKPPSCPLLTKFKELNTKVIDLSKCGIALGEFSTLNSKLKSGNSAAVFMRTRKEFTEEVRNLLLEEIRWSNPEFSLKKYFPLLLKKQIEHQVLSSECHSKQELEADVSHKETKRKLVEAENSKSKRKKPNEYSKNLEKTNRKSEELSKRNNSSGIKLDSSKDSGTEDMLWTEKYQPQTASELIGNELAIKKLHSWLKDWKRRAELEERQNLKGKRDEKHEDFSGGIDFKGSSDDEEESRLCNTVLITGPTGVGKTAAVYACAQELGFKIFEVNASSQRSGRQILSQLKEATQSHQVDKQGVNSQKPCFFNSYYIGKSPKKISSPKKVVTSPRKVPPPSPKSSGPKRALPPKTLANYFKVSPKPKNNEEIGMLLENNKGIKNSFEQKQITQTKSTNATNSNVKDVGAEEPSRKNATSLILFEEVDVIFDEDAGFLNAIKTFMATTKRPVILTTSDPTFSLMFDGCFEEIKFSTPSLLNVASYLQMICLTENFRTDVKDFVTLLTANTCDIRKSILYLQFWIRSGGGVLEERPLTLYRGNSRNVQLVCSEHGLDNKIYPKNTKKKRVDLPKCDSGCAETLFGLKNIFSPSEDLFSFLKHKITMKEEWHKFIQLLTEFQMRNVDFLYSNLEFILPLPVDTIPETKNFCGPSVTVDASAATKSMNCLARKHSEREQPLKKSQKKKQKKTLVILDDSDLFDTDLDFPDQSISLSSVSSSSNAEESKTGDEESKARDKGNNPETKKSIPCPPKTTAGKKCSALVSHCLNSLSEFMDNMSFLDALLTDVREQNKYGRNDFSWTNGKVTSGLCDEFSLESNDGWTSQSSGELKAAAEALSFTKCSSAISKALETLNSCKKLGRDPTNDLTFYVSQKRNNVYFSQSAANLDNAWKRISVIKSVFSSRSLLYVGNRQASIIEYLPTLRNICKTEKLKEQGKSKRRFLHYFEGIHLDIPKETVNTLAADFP
UniProt P54132: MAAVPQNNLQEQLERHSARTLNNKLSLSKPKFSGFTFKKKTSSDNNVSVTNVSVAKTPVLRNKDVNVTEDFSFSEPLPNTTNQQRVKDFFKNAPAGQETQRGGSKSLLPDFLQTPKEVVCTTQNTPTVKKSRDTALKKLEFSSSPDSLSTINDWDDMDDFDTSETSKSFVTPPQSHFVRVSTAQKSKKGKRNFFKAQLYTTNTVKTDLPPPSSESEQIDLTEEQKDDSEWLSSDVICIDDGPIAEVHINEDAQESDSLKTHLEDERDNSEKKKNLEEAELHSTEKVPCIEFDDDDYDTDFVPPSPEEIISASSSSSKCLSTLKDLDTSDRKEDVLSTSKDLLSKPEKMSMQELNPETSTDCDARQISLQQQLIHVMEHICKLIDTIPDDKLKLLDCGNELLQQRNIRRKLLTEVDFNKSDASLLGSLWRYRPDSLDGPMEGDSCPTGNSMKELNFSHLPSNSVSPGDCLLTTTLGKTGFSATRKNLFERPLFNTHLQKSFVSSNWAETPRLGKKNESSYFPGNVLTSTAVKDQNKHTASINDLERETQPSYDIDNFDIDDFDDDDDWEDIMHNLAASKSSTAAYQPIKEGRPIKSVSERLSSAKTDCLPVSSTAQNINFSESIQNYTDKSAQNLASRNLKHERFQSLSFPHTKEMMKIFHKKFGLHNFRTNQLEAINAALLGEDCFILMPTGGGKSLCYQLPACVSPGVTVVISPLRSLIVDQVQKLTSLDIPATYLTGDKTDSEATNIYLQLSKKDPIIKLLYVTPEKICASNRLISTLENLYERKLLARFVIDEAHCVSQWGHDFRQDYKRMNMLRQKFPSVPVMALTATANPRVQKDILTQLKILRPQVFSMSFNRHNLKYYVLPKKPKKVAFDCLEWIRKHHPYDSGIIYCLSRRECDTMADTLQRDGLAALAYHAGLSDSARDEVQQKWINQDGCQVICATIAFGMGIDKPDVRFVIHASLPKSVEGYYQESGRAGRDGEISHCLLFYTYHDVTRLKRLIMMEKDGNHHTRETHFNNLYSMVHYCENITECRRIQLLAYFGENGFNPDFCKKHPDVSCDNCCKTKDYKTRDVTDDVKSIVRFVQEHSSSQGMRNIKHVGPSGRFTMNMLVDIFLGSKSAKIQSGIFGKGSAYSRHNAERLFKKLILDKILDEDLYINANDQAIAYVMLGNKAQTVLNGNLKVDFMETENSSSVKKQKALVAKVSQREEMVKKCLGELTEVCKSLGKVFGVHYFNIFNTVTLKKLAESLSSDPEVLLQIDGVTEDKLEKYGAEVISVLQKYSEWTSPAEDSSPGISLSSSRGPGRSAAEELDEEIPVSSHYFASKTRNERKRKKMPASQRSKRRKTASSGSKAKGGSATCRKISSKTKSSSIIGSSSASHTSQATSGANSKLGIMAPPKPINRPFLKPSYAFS
UniProt Q99549: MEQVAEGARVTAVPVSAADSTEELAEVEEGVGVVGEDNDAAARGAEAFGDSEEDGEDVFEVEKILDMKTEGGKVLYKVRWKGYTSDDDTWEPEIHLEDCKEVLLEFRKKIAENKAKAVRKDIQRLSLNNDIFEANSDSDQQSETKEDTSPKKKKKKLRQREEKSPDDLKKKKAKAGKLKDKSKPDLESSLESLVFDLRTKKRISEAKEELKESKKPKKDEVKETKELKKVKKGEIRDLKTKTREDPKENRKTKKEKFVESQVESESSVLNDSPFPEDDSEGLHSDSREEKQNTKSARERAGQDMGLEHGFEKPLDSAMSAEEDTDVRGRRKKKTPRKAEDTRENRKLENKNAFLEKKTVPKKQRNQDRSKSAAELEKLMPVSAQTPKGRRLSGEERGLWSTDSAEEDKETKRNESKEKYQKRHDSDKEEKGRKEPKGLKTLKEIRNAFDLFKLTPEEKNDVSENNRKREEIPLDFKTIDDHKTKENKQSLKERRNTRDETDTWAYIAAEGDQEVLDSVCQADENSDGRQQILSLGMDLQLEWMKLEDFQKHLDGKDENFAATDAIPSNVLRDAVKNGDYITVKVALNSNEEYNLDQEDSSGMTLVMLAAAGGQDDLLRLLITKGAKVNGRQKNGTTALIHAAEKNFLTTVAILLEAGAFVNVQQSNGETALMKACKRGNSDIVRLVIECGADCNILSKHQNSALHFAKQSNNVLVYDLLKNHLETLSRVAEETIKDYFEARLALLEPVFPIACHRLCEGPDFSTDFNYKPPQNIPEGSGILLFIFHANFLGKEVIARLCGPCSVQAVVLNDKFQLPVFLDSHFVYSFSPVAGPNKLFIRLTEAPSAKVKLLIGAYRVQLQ

Experiments:
[1] = Stat Signaling Pathway (AID 446; active = well fitted curve in either direction with a large enough effect, not every such curve was filed as active; inconclusive = small, poorly fitted or top-dose-only effect, or another doubt;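 also: ME-180 cervical cancer cells given 40 pM IL-6 alongside compound; SIE-controlled beta-lactamase reporter measured as 460/530 nm FRET emission ratio; % is scaled to controls: 0 for no effect and ±100 for the full control effect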); conditions: ME-180 (cervical carcinoma) SIE beta-lactamase reporter, IL-6 stimulated, 5 h
Outline: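 Overnight-plated ME-180 cells bearing a STAT Inducible Element beta-lactamase reporter; 5 h co-exposure to compound and 40 pM IL-6; values normalized to 300 pM IL-6 and 125 nM JAK inhibitor controls.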

[2] = target: Mitogen-activated protein kinase 10 (Mus musculus) (UniProt Q61831); test: JNK3 AlphaScreen Assay (AID 530; active = well fitted curve in either direction with a large enough effect, not every such curve was filed as active; inconclusive = small, poorly fitted or top-dose-only effect, or another doubt;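 also: kinase came from lysate of stimulated human HepG2 cells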; also: potency is read from the fitted curve at half-maximal effect;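 as to activity change, negative = inhibition: signal reports phosphorylation of biotinylated GST-cJun 1-79 at Ser73 with 10 µM ATP; % is scaled to controls: 0 for no effect and ±100 for the full control effect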); conditions: JNK3 lysate, c-Jun phosphorylation; activity change, negative = inhibition: at 57.1 µM (top of the series)
Outline: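 qHTS titrations with 15 min compound pre-incubation before adding ATP (10 uM final). Read-out: AlphaScreen of Ser73-phosphorylated biotin-GST-cJun using HepG2 lysate JNK3 activated by IL-1β and TNFα.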

[3] = target: 3',5'-cyclic-AMP phosphodiesterase 4B (Homo sapiens) (UniProt Q07343); test: qHTS Assay for Inhibitors of PDE-IV (AID 607; active = well fitted activation curve with a large enough effect in the main read-out, with a control signal flat, not every such curve was filed as active; inconclusive = small, poorly fitted or top-dose-only effect, or effect the other way, or a change in a side signal; also: potency is read from the fitted curve at half-maximal effect); conditions: HEK293 ACTOne CNG channel cells, membrane potential fluorescence; activation (PDE inhibition): at 22.9 µM (top of the series)
Outline: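 Live HEK293 cells with a modified cyclic nucleotide-gated (CNG) channel report intracellular cAMP via membrane-potential dye fluorescence (ex 535/em 590 nm). Endogenous PDE-IV was targeted. Compounds were tested at up to 22.9 uM final; RO 20-1724 100 uM served as control.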

[4] = qHTS Assay for Identification of Small Molecule Agonists for Thrombopoietin (TPO) Signaling Pathway (AID 917); conditions: TPO signaling pathway reporter cells, agonist qHTS, stimulated with TPO at its EC50; activity, positive = activation: at 38.5 µM (top of the series); also: potency is read from the fitted curve at half-maximal effect
Outline: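 Human TPO receptor–transfected Ba/F3 cells (murine, IL-3-dependent) in IL-3-deficient medium; compounds plus TPO at EC50, 26 pM final; 24 hrs, 37 C; GpIIb-luciferase luminescence after 10 min RT detection.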

[5] = target: Muscarinic acetylcholine receptor M1 (Rattus norvegicus) (UniProt P08482); test: qHTS Assay for Antagonists of Acetylcholine Muscarinic M1 Receptor: Measurement of IP-One Response (AID 944); conditions: CHO-M1 cells, IP-One HTRF, antagonist mode; series mostly up to 46.1 µM; also: potency is read from the fitted curve at half-maximal effect; nearly all actives have a fitted effect of over 75% in size
[6] = qHTS for differential inhibitors of proliferation of Plasmodium falciparum line Dd2 (AID 1882); conditions: Potency: Plasmodium falciparum Dd2 proliferation inhibition; series mostly up to 28.7 µM; also: potency is read from the fitted curve at half-maximal effect; nearly all actives have a fitted effect of over 65% in size
Outline: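 SYBR Green DNA fluorescence (ex 485, em 535 nm) after overnight lysis quantifies parasite growth; compound exposure lasted 72 h at 37 C on infected red cells at 2.5% hematocrit, 0.3% parasitemia (final). Artemisinin 0.29 uM and vehicle wells define normalization.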

[7] = Quantitative high throughput screen for delayed death inhibitors of the malarial parasite plastid, 48 hour incubation (AID 488752); conditions: Plasmodium falciparum growth; series mostly up to 28.7 µM; also: nearly all actives have a fitted effect of over 65% in size; also: potency is read from the fitted curve at half-maximal effect
Outline: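 First, compound was pinned into RPMI 1640 medium containing 0.5% Albumax. Next, reporter-parasite-infected erythrocytes were added to 2% hematocrit and 0.1% parasitemia. After 48 h at 37 C under 5% CO2, luciferase detection reagent was added and luminescence read.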

[8] = Validation screen for small molecules that induce DNA re-replication in SW480 colon adenocarcinoma cells (AID 504364); conditions: DNA re-replication phenotype (high-content imaging); series mostly up to 46.1 µM; also: potency is read from the fitted curve at half-maximal effect
Outline: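 Image-based qHTS: compounds were incubated with SW480 cells for 48 hr, nuclei stained with Hoechst, and per-nucleus fluorescence intensity scanned to flag cells with excess DNA content.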

[9] = Primary fluorescence-based thiol-reactive (MSTI) qHTS assay for identification of artifact compounds. (AID 1845221); conditions: MSTI thiol-reactivity probe, 1 h; series mostly up to 53.8 µM; also: nearly all actives have a fitted effect of over 65% in size; also: potency is read from the fitted curve at half-maximal effect
Outline: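 Thiol-reactive compounds detected by quenching of 4 uM MSTI fluorescence (525/598 nm) after 1 h room-temperature dark incubation in PBS pH 7.4, 2% DMSO. qHTS titration; percent inhibition Hill-fitted against Acetyl-MSTI/MSTI controls.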

[10] = qHTS for differential inhibitors of proliferation of Plasmodium falciparum line 3D7 (AID 1876);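 also: parasite growth measured after three days of culture; 0% = vehicle wells and -100% = reference inhibitor wells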; conditions: P. falciparum 3D7 proliferation inhibition; series mostly up to 28.7 µM
[11] = qHTS for differential inhibitors of proliferation of Plasmodium falciparum line HB3 (AID 1886); conditions: Potency: Plasmodium falciparum HB3 proliferation inhibition; series mostly up to 28.7 µM;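 also: parasites grown with compound for 72 h before SYBR Green readout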; also: potency is read from the fitted curve at half-maximal effect;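 as to activity change, negative = inhibition: plate controls were vehicle for no effect and reference inhibitor for full effect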
[12] = target: ATPase family AAA domain-containing protein 5 (Homo sapiens) (UniProt Q96QE3); test: Validation screen for small molecules that inhibit ELG1-dependent DNA repair in human embryonic kidney (HEK293T) cells expressing luciferase-tagged ELG1 (AID 493107); conditions: HEK293T ELG1-luciferase level, luminescence, 5-fluorouridine co-treatment, 16 h; series mostly up to 46.1 µM;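 also: cells co-treated with the DNA-damaging agent 5-fluorouridine alongside compound; % is scaled to controls: 0 for no effect and ±100 for the full control effect; inhibitors lower the ELG1-luciferase luminescence signal; nearly all actives have a fitted effect of over 70% in size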
Outline: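 Cells are dispensed in 1536-well format, then 5-fluorouridine and compound are pinned in. After a 16 hr incubation at 37 °C and 5% CO2, ONE-Glo is added and luciferase measured on a CCD imager.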

[13] = Primary redox qHTS assay for identification of artifact compounds. (AID 1845223); conditions: Amplex Red/HRP redox cycling with DTT, fluorescence; series mostly up to 53.8 µM; also: potency is read from the fitted curve at half-maximal effect
Outline: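 Redox-cycling detection via DTT (250 uM final) oxidation coupled to Amplex Red (25 uM)/HRP (250 mU/mL) in HBSS. 15 min preincubation plus 30 min after DTT, room temperature. Ex/Em 525/598 nm; 4-parameter Hill fit against DMSO and 10 uM DA3003.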

[14] = NFAT Signaling Pathway (AID 444; active = well fitted curve in either direction with a large enough effect, not every such curve was filed as active; inconclusive = small, poorly fitted or top-dose-only effect, or another doubt;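 also: carbachol stimulus at about its EC50 of 1 µM final; % is scaled to controls: 0 for no effect and ±100 for the full control effect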); conditions: Jurkat NFAT-bla M1, carbachol, beta-lactamase ratio, 5 h; at 17.2 µM (top of the series) unless noted
Outline: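 Read-out: CCF4 FRET ratio (460 nm/530 nm) after 1 h RT dye loading, used for %activity and AC50 from titration series. Cells: Jurkat NFAT-β-lactamase/M1 line, treated with compound plus 1 uM carbachol for 5 h, 37 °C.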

[15] = qHTS Assay for Identification of Small Molecule Antagonists for NFkB Signaling Pathway (AID 895; active = well fitted inhibition curve with a large enough effect in the signal ratio, with a control signal flat, not every such curve was filed as active; inconclusive = small, poorly fitted or top-dose-only effect, or effect the other way, or a change in a side signal; the % refers to the signal ratio; also: % is scaled to controls: 0 for no effect and ±100 for the full control effect); conditions: NFkB beta-lactamase reporter cells, FRET ratio 460/530, stimulated with 10 pM TNF alpha; activity change, negative = inhibition: at 38.3 µM (top of the series)
Outline: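 Beta-lactamase reporter read-out (460 and 530 nm emission ratio, 405 nm excitation, 2 hrs substrate loading RT) after 5 hr stimulation with 10 pM TNF alpha in compound-treated NFkB-bla ME-180 cells in low-serum medium.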

[16] = qHTS Assay for Identification of Small Molecule Antagonists for Thrombopoietin (TPO) Signaling Pathway (AID 918); conditions: TPO-dependent cell signaling reporter, antagonist mode; activity change, negative = inhibition: at 38.5 µM (top of the series)
Outline: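 Inhibitors of TPO signaling are sought by stimulating IL-3-starved murine Ba/F3 cells (human TPO receptor, Glycoprotein IIb-driven luciferase) with TPO at its EC50 of 26 pM alongside compound. After 24 hrs at 37 C, reporter luminescence is measured.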

[17] = target: RecQ-like DNA helicase BLM (Homo sapiens) (UniProt P54132); test: qHTS Validation Assay for Inhibitors of Bloom's syndrome helicase (BLM) (AID 2364); conditions: BLM helicase DNA unwinding, fluorescence, in vitro; series mostly up to 57.1 µM; also: potency is read from the fitted curve at half-maximal effect
Outline: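 Forked 20-bp duplex substrate (200 nM, TAMRA/BHQ-2) plus 2 mM ATP added after 15 min compound preincubation with 50 nM enzyme, pH 8.0, poly(dI-dC) 2.5 ug/ml. Strand separation followed by fluorescence (525/598 nm) over 2 h, normalized to enzyme-free and DMSO controls.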

[18] = Quantitative high throughput screen for delayed death inhibitors of the malarial parasite plastid, 96 hour incubation (AID 488745); conditions: Plasmodium falciparum growth; series mostly up to 28.7 µM; also: potency is read from the fitted curve at half-maximal effect; nearly all actives have a fitted effect of over 70% in size
Outline: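 Readout is firefly luciferase luminescence from an integrated reporter in P. falciparum; lower signal marks inhibited growth. Cultures at 2% hematocrit and 0.1% parasitemia were treated with compound across two generations (96 h, 37 C, 5% CO2).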

[19] = target: M-phase phosphoprotein 8 (Homo sapiens) (UniProt Q99549); test: qHTS Validation Assay for Inhibitors for MPP8 Chromodomain Interactions with Methylated Histone Tails (AID 488949); conditions: AlphaScreen MPP8 binding to H3K9me3 peptide; series mostly up to 114 µM; also: potency is read from the fitted curve at half-maximal effect; nearly all actives have a fitted effect of over 55% in size
Outline: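 Chemiluminescent proximity assay: histidine-tag capture via nickel acceptor beads, biotin peptide via streptavidin donor beads. Protein and peptide each at 50 nM, pH 7.4, with 30 min incubations at room temperature for complex formation, compound exposure and bead binding.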

CCCNC[C@H](O)COc1ccccc1C(=O)CCc1ccccc1
activity, negative = inhibition ([1]; at 17.2 µM (top of the series)): inactive: -4.64% | activity, negative = inhibition ([1]; at 38 µM (top of the series)): inactive: -19.1% and inactive: -13.3% | Potency [2]: inconclusive: 12.6 nM [activator, full curve, poor fit] and inactive | Potency [3]: inconclusive: 9.51 µM [rising, partial curve] | Potency [4]: inconclusive: 12.6 µM [inhibitor, single point] and inconclusive: 10 µM [inhibitor, partial curve] | Potency [5]: inconclusive: 22.4 µM [inhibitor, partial curve, poor fit] | Potency [6]: active: 1.12 µM | Potency [7]: active: 2.08 µM | Potency [8]: inconclusive: 10.3 µM [activator, partial curve, poor fit]

COc1cc(C2Oc3c(OC)cc(/C=C/C(=O)OC4CC(O)(C(=O)O)CC(O)C4O)cc3C2CO)ccc1O (centres undefined)
Potency [9]: inactive

NC1C=CC=C(C(=O)O)C1 (centres undefined)
Potency [10]: inactive | Potency [11]: inactive | Potency [12]: inactive

C[C@@H]1O[C@@H](O[C@H]2[C@H](O)[C@@H](O[C@@H]3O[C@H](CO)[C@H](O)[C@H](O)[C@H]3O)[C@H](O[C@H]3CC[C@@]4(C)C(CC[C@]5(C)C4CC=C4[C@@H]6CC(C)(C)CC[C@]6(C(=O)O[C@@H]6O[C@H](CO)[C@@H](O)[C@H](O)[C@H]6O)CC[C@]45C)C3(C)C)O[C@@H]2C(=O)O)[C@H](O)[C@H](O)[C@H]1O (some centres undefined)
Potency [13]: inconclusive: 3.19 µM [activator, partial curve, poor fit]

COc1cc2c(cc1OC)CC(=O)N(CCCNC[C@H]1Cc3cc(OC)c(OC)cc31)CC2
Potency [9]: inactive

OCCc1ccc(O[C@@H]2O[C@H](CO)[C@@H](O)[C@H](O)[C@H]2O)c(O)c1
Potency [9]: inconclusive: 16.5 µM [inhibitor, partial curve]

CC(=O)OC[C@@]12C(=O)C[C@@H](C)[C@]3(C[C@@H](c4ccoc4)OC3=O)[C@H]1CC[C@H](OC(C)=O)[C@]21CO1
Potency [9]: inconclusive: 10.3 µM [inhibitor, partial curve]

NCC1OC(O[C@@H]2[C@H](O)[C@@H](OC3C(O)C(N)CC(N)C3OC3OC(CO)C(O)C(O)C3N)O[C@@H]2CO)C(N)C(O)C1O (some centres undefined)
Potency [11]: inactive | Potency [7]: inactive

CC1NC(=O)C(Cc2c[nH]c3ccccc23)NC1=O (centres undefined)
Potency [13]: inactive

CCOC(=O)[C@H](CCc1ccccc1)N[C@@H](C)C(=O)N1C2CCCCC2C[C@H]1C(=O)O (some centres undefined)
Potency [13]: inconclusive: 29.9 µM [activator, partial curve, poor fit]

COc1ccc2c(c1)c(CC(=O)O)c(C)n2Cc1ccc(F)cc1
activity change, negative = inhibition [14]: inactive: 6.06% [at 38 µM] | activity, negative = inhibition ([1]; at 7.69 µM (top of the series) unless noted): inactive: 11.9% [at 38 µM] | activity change, negative = inhibition [15]: inconclusive: -37.5% | activity change, negative = inhibition [16]: inconclusive: -22.5% [phenotype inactive] | Potency [11]: inconclusive: 12.6 µM [inhibitor, single point] | Potency [17]: inconclusive: 0.0224 µM [inhibitor, full curve, poor fit] | Potency [18]: inconclusive: 9.28 µM [inhibitor, partial curve] | Potency [19]: inconclusive: 79.4 µM [inhibitor, single point]
